# In the supplement of paper PMC3334620:
# In all, about 33,000 sequences were measured (“E-score (-0.5 to 0.5)”: median about -0.015, highest 2% from about 0.3 on). This is one part of the list.
# Biological target: T1, Abf1 (UniProt P14164)
# T1 sequence: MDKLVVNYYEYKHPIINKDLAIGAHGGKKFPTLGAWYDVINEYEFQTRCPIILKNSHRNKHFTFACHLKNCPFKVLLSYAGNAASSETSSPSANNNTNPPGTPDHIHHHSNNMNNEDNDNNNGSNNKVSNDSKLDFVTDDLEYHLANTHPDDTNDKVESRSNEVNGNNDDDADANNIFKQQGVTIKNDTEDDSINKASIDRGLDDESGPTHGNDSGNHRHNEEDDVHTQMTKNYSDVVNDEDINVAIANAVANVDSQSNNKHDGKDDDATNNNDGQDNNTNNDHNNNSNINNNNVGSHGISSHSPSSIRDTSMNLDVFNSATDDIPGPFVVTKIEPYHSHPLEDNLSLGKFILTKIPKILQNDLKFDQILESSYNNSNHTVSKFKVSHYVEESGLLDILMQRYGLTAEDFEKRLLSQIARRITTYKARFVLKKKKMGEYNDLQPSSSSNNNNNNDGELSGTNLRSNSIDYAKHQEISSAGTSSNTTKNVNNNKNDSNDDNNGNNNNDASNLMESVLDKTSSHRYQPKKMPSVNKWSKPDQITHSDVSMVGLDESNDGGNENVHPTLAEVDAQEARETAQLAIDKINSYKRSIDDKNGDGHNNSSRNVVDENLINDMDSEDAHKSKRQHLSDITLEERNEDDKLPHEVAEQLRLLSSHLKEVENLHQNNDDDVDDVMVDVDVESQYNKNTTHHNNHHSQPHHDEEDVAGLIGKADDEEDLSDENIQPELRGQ
# Experiment: PBM E-score (8-mer binding enrichment) (E-score (-0.5 to 0.5)); higher = stronger / more preferred TF binding
# Details: protein concentration: 200 nM; construct: GST-full length
# Outline: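 Bound GST-tagged yeast transcription factors, applied at about 100-200 nM to double-stranded universal all-10-mer Agilent arrays, were detected with fluorescent anti-GST. Scans were normalised with masliner. A modified Wilcoxon-Mann-Whitney statistic, the E-score, was assigned to each ungapped eight-base word pooled with its reverse complement by the Universal PBM Analysis Suite.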
row,Sequence,PBM E-score
1,TGAGCCCA,-0.105
2,ACAGAGGA,-0.0869
3,AGACCCCA,-0.0171
4,ACCGGAGG,-0.222
5,GATCAGCA,0.189
6,TAAATCAA,0.148
7,AGACCCGC,-0.0507
8,AGGATCGG,-0.214
9,AATAAAGC,0.0706
10,CAGTTCGC,-0.0717
11,GAAATCAA,0.0471
12,CGATAGAA,0.00215
13,CTTGGCGC,0.0227
14,CATATTGG,0.0318
15,AGCCAATA,-0.125
16,CACTCTGG,-0.0609
17,CACTCCCC,-0.188
18,CCATGGGG,-0.095
19,GGAATCTA,0.0145
20,CGAGGTGA,0.129
21,GAGAAGGC,-0.225
22,AAATAGTC,0.00163
23,CGTGAGTA,0.155
24,AAGCTCGC,-0.0978
25,GACCGCCA,-0.188

row,Sequence,PBM E-score
1,AACTTGGG,-0.238
2,CGTACTTA,0.236
3,CACCACCC,-0.104
4,CAACCGCA,-0.0837
5,ATGATCTC,0.296
6,AACTTCCA,-0.097
7,AATCCATT,0.00817
8,AGGCCGAT,-0.057
9,AGCGCTGG,-0.102
10,CAACTAGG,0.0136
11,GATGCAGC,-0.132
12,ATACATCC,-0.115
13,CAATTTCC,-0.0512
14,CCGTCTTC,0.0806
15,AATTGCCT,-0.00284
16,ACGGAGAA,0.117
17,AGACCCAT,-0.134
18,CTACCTGA,-0.192
19,CACCAAAG,-0.0312
20,CTCCCTGA,-0.205
21,AAGCTAAC,0.0254
22,ATATTGAG,0.0975
23,GCAGCAAC,0.06
24,TATGTCCA,-0.0663
25,ATGAACCC,-0.0465

row,Sequence,PBM E-score
1,CACTTTGC,0.137
2,CGGGAGCA,-0.228
3,GGTGCAGA,-0.244
4,ACGCTTCT,-0.0563
5,CCCGTACA,0.263
6,CAAATATC,0.275
7,GTACCAGA,0.033
8,GATAGCTA,-0.0725
9,CGACTGAC,0.0955
10,ATCACTCC,0.345
11,CACGCCCC,-0.136
12,ATACGCAG,-0.00996
13,TGGTTTAA,0.196
14,ATCTCGTG,0.113
15,ATTCCCCC,-0.197
16,CAATCTTC,0.135
17,GCCAACAC,0.102
18,GAGCTGGA,-0.284
19,GTGCAGTA,-0.198
20,ATCTCTGC,0.0352
21,AGATAGCG,0.0758
22,AACGACCG,-0.0233
23,AGTAAATA,0.103
24,CTGGGCCC,-0.174
25,CTACGAGC,0.0233

# Copied from the list.
# GGTGCAGA | PBM E-score: -0.244
# CACTTTGC | PBM E-score: 0.137
# CACGCCCC | PBM E-score: -0.136
# ATTCCCCC | PBM E-score: -0.197
# CGACTGAC | PBM E-score: 0.0955
# AGTAAATA | PBM E-score: 0.103

# Pulled one by one from the entries so far, seven records:
row,Sequence,PBM E-score
18,GAGCTGGA,-0.284
21,AGATAGCG,0.0758
11,CACGCCCC,-0.136
19,GTGCAGTA,-0.198
14,ATCTCGTG,0.113
20,ATCTCTGC,0.0352
17,GCCAACAC,0.102

# Carrying on:

row,Sequence,PBM E-score
1,CCTAGTCG,-0.077
2,ATATTTTC,0.0192
3,ACGCTGTC,-0.0257
4,AAGGCCTC,-0.0142
5,ACTCAAGA,-0.102
6,CTGCACAC,-0.0257
7,CGACGCTC,-0.0203
8,GTTTGCAA,0.161
9,AGGTTGTC,-0.0329
10,ACACTAGT,-0.0582
11,AATGCCCC,-0.14
12,CGATTCGA,0.102
13,CCGCGCAA,-0.0625
14,AACAATGT,-0.0137
15,AACCTGTG,-0.0933
16,AATTGGGA,-0.0214
17,TAACGCTA,-0.0187
18,ATTTACTG,0.0186
19,ATGGCTTG,-0.0149
20,CTCGATGC,-0.143
21,GGCTACTA,0.0597
22,CATCCCAA,0.00786
23,CAGACAGA,0.00458
24,GGTACGAC,0.185
25,ACGATCAT,0.222

row,Sequence,PBM E-score
1,CATATCTC,0.0355
2,CACTCCGC,-0.149
3,GCACTCCA,-0.271
4,ACTTTCAG,0.0983
5,GCCGAGAC,-0.156
6,ATCGCTTG,0.0683
7,AAGTACGT,0.275
8,CGGGATCA,-0.1
9,GTCGGCAC,-0.103
10,ACGAATGC,0.185
11,AGGCAATC,-0.0105
12,CCACTGGG,-0.107
13,CCTTTGTA,0.0245
14,ACTTTTCA,0.00097
15,AGCCCAAT,-0.177
16,CACGTGAA,0.213
17,AGCACACG,-0.0648
18,AAAATAAC,0.0816
19,CAGGGTAA,-0.0268
20,CAGGATCA,-0.0317
21,CCTACTAG,-0.101
22,CGCGGACC,-0.0283
23,ATATGGCG,0.0184
24,AGTGGATC,-0.0658
25,GGTCAAGA,-0.0306

row,Sequence,PBM E-score
1,CGGACATC,-0.169
2,CGCCGAAA,-0.0299
3,TATGGAAA,0.0575
4,AAACACAC,0.14
5,AAGCGATC,0.156
6,TAATCCTA,-0.00132
7,AACATGAT,0.222
8,CACGAACC,0.185
9,CGCAAGAG,-0.0232
10,GGGGCTAC,-0.287
11,GGATAGAC,-0.0749
12,ACGGTACT,0.114
13,ACCTACAT,-0.00514
14,TGGTACCA,-0.123
15,ACGACATG,0.225
16,CAGCAATC,-0.0343
17,CATCAACG,0.208
18,ACATCACT,0.415
19,GATAGGAC,-0.123
20,GGGTTAGA,-0.0709
21,CAAGAAGA,0.0362
22,AAGAGTGT,-0.052
23,AAAACCCG,0.0426
24,CTATTCAC,0.121
25,GCATTACA,-0.102

row,Sequence,PBM E-score
1,CAAAAACC,0.116
2,CTGACAGC,-0.191
3,GCTGGGGA,-0.203
4,CTCGCACA,0.00582
5,CGTTTTGC,-0.0175
6,ATGTGTCC,-0.101
7,GGCTGGAA,-0.197
8,CCAAAGTC,-0.116
9,GGCCAAGA,-0.331
10,CGTGAGAG,-0.0528
11,CCCTGCAG,-0.165
12,CCTTCACG,0.225
13,AACTAAGT,0.0996
14,GTTTATCA,0.304
15,ACGAGTTG,-0.00153
16,ACGCGTTA,0.105
17,GGAATGCA,-0.1
18,ACCGAGCA,-0.0941
19,ACTCGCCA,-0.0285
20,ATCACCGC,0.311
21,AGAGACTG,-0.262
22,AGTTAGAT,-0.0731
23,GGTTAGAC,0.0445
24,AACCTCGG,-0.17
25,CTCGCCTC,-0.268

row,Sequence,PBM E-score
1,CGCGCGGA,0.103
2,CTGCTCGC,-0.15
3,CTGGATAC,-0.0995
4,CTTAGAAA,-0.151
5,TAGCAGGA,-0.124
6,AAGTTCTG,-0.0278
7,CAGAGACC,-0.141
8,AATAGAAG,0.0303
9,ATTCTGCC,0.00271
10,GGGCGAAA,-0.115
11,GGCCCTTA,-0.233
12,ACGTAATA,0.252
13,ACAAAAGG,0.0916
14,CTGAAGCA,-0.0488
15,CTACCCAG,-0.0466
16,TAGCCTGA,-0.119
17,CCGCATCC,-0.0062
18,GCAACTCA,-0.00567
19,AGGGTTCC,-0.115
20,ACAATAAC,0.0884
21,CCGGCGAC,-0.156
22,CTCTTCGC,-0.116
23,CAGGGGAG,-0.214
24,CGGTTACG,-0.0882
25,CACTTAGG,0.114

row,Sequence,PBM E-score
1,ATTATAGA,0.0267
2,ATGTGAGG,0.105
3,AGGGGGAT,-0.171
4,GAATTTTA,0.15
5,ACTTGCCA,0.0094
6,CTCATAGC,-0.0943
7,ACTAGAAC,0.0148
8,GATCGATA,0.163
9,GGTACATA,0.0058
10,ATTTATTC,0.188
11,AATCGCAC,0.0211
12,AACACGAT,0.247
13,ATTGGGTA,0.0312
14,GAAAACGC,-0.0304
15,CCACAGAA,-0.0526
16,ATCATCGG,0.116
17,ATAACAAT,-0.0401
18,ACCCCCAC,-0.323
19,TAAGGGGA,-0.023
